# Experiment: soluble on expression in E. coli; label from the status in PepcDB or PDB records
row,Sequence,soluble on expression in E. coli
1,MSLVMRESTTISKRRACLLAGLSRTVLHYESKVQPENEQLQARLVEVASERRRFGYRRLHALVRREGVQVNHKRIYRLYSSAGLSVRHRKKRHGVAVERQALELPSSPKQVWSMDFVSDALANGRRIKVLTIVDDFSKEAIDLAVDFGISGHYVTRVLDQAARFRGYPKAVRTDQGPEFTGKAMDQWAYQHGVQLKLIQAGKPTQNAFIESFNGRFRDECLNDHWFTSLPQARILIAAWRRDYNQHRPHSSMDYLTPAEFAAKHRSCDPDDPVGKGCLEGHHHHHH,soluble
2,MSPGSVVVTGANRGIGLGLVKQFVKDKNIRHIIATARDVEKATVSLKTQFYNCMCFSKNQDLKSINDPRLHVIPLALTCDKSMDKFVSKVGDIVGSDGLNLLVNNAGSAVKYSTKAEPSRAKLVEQFDVNTFSVVILSQKLLPLLTKASSKVSGDELSVSRAAVVTISSGLGSITENTSGSGVIEGLAYRMSKSAVNMFARTFAIDMKDDYILAANFCPGWVQTDMGGKHAALTVSLGV,not soluble
3,MTLPWNTFPGSTVPPVVPSVEDIIRMLVAGQQKIAIQNLLQSQSKEQVNGTSHDLQNWLTSLCISPSSSPTPSNASTSTIPAQMTNENVLHLQIQSQLFSNLGTPWFLNPEQHNKTNNAIRKRPKKEFICKYCARHFTKSYNLMIHERTHTNERPFHCETCGKSFRRQDHLRDHKYIHAKEKPHKCEICGKGFCQLRTLNVHRSCHHVQEPISETFMLGAIKFGKADSLLIDAEPLIDVTTI,not soluble
4,MTTTEEAPKSPLFEAIDKNDTEAALALLKTKEQAAQRDPSGMSVLAAAAYRGNLTLVEKAIELKCDVNDKTDGTLYTPLMFAALSGKQDVCRLLMDSGARMYLVNGIGKTASELAAFVGHHECVAIINNHITIDVIEDLLRPKVNGKYEGAEEYPDELAVFIHSLCGSHEIHPVKIIFRFSKYPDSLKYKKKILYVIDRVFEKQLRCKESNEIMSLKLWLILFSMRETSKFVESNKEKSPEEASLQYAKLISTWQEGDETRRALDVMLRNAVASFPYKHSLLHDTLQKALQKSQIGERPSAYEYIVQALFGQRIAAVCQFCSVCGHPGAKKRCTQCKLAYCSQECQKFDWPIHKKVCSFLKTRQEVSPTDETAMSLDDIQAQIAKIDV,not soluble
5,SASPRTRKVLKEVRAQDENNVCFECGAFNPQWVSVTYGIWICLECSGRHRGLGVHLSFVRSVTMDKWKDIELEKMKAGGNAKFREFLEAQDDYEPSWSLQDKYSSRAAALFRDKVATLAEGKEWSLESSPAQNWTPPQPKTLQFTAHRPAGQPQNVTTSGDKAFEDWLNDDLGSYQGAQENRYVGFGNTVPPQKREDDFLNSAMSSLYSGWSSFTTGASKFASAAKEGATKFGSQASQKASELGHSLNENVLKPAQEKVWVAPKSRCLCVPLRLFTDLGNGYVGDLQNLASNLLQSRWPWASFS,soluble
6,SKFIIGIGGVTNGGKTTLTNRLIKALPNCCVVHQDDFFKPPDQIAVGMDGFKQWDVIDALDMEAMVNTIKGWLENPVKFARSHGIQVTPATEMEDPESQVHILIVEGFLLYNYKPLLDVFDKSYYITIPYEECKKRRSTRQYTVPDPPGLFDGHVWPMYLKHRFAMENCGLPIEYLDGLKTKDEIYNQVYEDVHNTLLNRL,soluble
7,SSSLRQVEWIIEDSGAVFAITETREHSELMKNLVLGDDGHPPLKGSPSQLRRIVEINSSAISTLKFEGRDVPDSVVEERIANTSSSDLASLVYTSGTTGRPKGCCLTHYNWLSQVRGLLTNDIGAIAVPGNR,not soluble

# Reference: the DeepSol protein solubility set
